PubChem BioAssay AID686938 – Drosophila RNAi Screening Center – 2013
The deposit covers about 23,000 reagents; below is a random part of those that have a named target and a result. Of all reagents, 75 (0.33%) were called active. 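Raw plate signals without normalisation; calls rest on plate z-scores that were not deposited; ratio present for only 364 wells.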 A plus sign joins genes that one reagent is predicted to hit. Not given: the dose of the treatment.

Screen: 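Looking for CRAC channel components and the factors controlling them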 (primary screen)
System: Drosophila S2R+ cells
Knock-down reagent: long dsRNA against Drosophila genes, about 0.25 µg dsRNA per well, roughly 10,000 cells
Time to read-out: 5 days of knock-down before the calcium assay
Challenge: thapsigargin (SERCA pump blocker) to empty calcium stores; entry signal taken 4 min after adding it
Detection: 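Per-well fluo-4 fluorescence in two replicates, unnormalised, measured in resting cells and 4 min after store depletion by the SERCA blocker thapsigargin; ratio of the two present in few wells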
Reading the numbers: calcium entry signal: higher = stronger calcium signal after store depletion; resting calcium signal: higher = higher resting calcium signal
Rule for the call: 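Called when the plate z-score of the entry-to-rest ratio, mean of duplicates, falls below −3; wells with low overall dye signal (Fmax z below −2) or more than five off-targets excluded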
Calls: active = strongly reduced calcium entry; inactive = no strong reduction

| Target gene | dsRNA | calcium entry signal, replicate 1 (fluorescence units) | calcium entry signal, replicate 2 (fluorescence units) | resting calcium signal, replicate 1 (fluorescence units) | resting calcium signal, replicate 2 (fluorescence units) | activity call |
| --- | --- | --- | --- | --- | --- | --- |
| retm | DRSC03252 | 5.33e7 | – | 2.69e7 | – | inactive |
| CG13049 | DRSC09930 | 2.91e7 | 5.41e7 | 1.47e7 | 2.22e7 | inactive |
| CG42811 | DRSC15367 | 3.93e7 | 6.78e7 | 2.33e7 | 2.70e7 | inactive |
| Muc91C | DRSC16297 | 4.40e7 | 3.73e7 | 4.81e7 | 1.75e7 | inactive |
| Muc91C | DRSC21696 | 4.18e7 | 3.35e7 | 2.13e7 | 1.54e7 | inactive |
| msps | DRSC17004 | 3.04e7 | 2.55e7 | 1.51e7 | 1.38e7 | inactive |
| Spc25 | DRSC14164 | 2.02e7 | 3.53e7 | 1.10e7 | 6.37e7 | inactive |
| Serinc | DRSC11296 | 4.28e7 | 4.45e7 | 1.87e7 | 2.69e7 | inactive |
| Npc2b | DRSC15464 | 3.24e7 | 4.60e7 | 1.55e7 | 6.14e7 | inactive |
| Rbsn-5 | DRSC03094 | 5.83e7 | – | 3.51e7 | – | inactive |
| CG3546 | DRSC18308 | 3.87e7 | 5.28e7 | 2.19e7 | 2.40e7 | inactive |
| oys | DRSC05203 | 2.10e7 | 5.04e7 | 1.30e7 | 4.99e7 | inactive |
| oys | DRSC06751 | 5.02e7 | 3.79e7 | 2.11e7 | 1.72e7 | inactive |
| AGO2 | DRSC09999 | 3.16e7 | 3.83e7 | 1.52e7 | 1.66e7 | inactive |
| AGO2 | DRSC10847 | 3.78e7 | 4.15e7 | 1.81e7 | 2.89e7 | inactive |
| Octalpha2R | DRSC13319 | 4.30e7 | 1.97e7 | 1.92e7 | 9.66e6 | inactive |
| Octalpha2R | DRSC15314 | 2.84e7 | 3.81e7 | 3.45e7 | 1.59e7 | inactive |
| CG32708 | DRSC18411 | 1.68e7 | 4.42e7 | 9.32e6 | 1.98e7 | inactive |
| CG18789 | DRSC02696 | 3.26e7 | 2.53e7 | 1.51e7 | 1.13e7 | inactive |

4 entries from above, reformatted.
{"Target gene":"Serinc","dsRNA":"DRSC11296","calcium entry signal, replicate 1 (fluorescence units)":4.28e7,"calcium entry signal, replicate 2 (fluorescence units)":4.45e7,"resting calcium signal, replicate 1 (fluorescence units)":1.87e7,"resting calcium signal, replicate 2 (fluorescence units)":2.69e7,"activity call":"inactive"}
{"Target gene":"Npc2b","dsRNA":"DRSC15464","calcium entry signal, replicate 1 (fluorescence units)":3.24e7,"calcium entry signal, replicate 2 (fluorescence units)":4.60e7,"resting calcium signal, replicate 1 (fluorescence units)":1.55e7,"resting calcium signal, replicate 2 (fluorescence units)":6.14e7,"activity call":"inactive"}
{"Target gene":"Rbsn-5","dsRNA":"DRSC03094","calcium entry signal, replicate 1 (fluorescence units)":5.83e7,"resting calcium signal, replicate 1 (fluorescence units)":3.51e7,"activity call":"inactive"}
{"Target gene":"CG3546","dsRNA":"DRSC18308","calcium entry signal, replicate 1 (fluorescence units)":3.87e7,"calcium entry signal, replicate 2 (fluorescence units)":5.28e7,"resting calcium signal, replicate 1 (fluorescence units)":2.19e7,"resting calcium signal, replicate 2 (fluorescence units)":2.40e7,"activity call":"inactive"}

Continued:
| Target gene | dsRNA | calcium entry signal, replicate 1 (fluorescence units) | calcium entry signal, replicate 2 (fluorescence units) | resting calcium signal, replicate 1 (fluorescence units) | resting calcium signal, replicate 2 (fluorescence units) | activity call |
| --- | --- | --- | --- | --- | --- | --- |
| Msr-110 | DRSC11227 | 3.54e7 | 2.13e7 | 2.40e7 | 9.60e6 | inactive |
| CG11929 | DRSC00339 | 2.61e7 | 2.52e7 | 1.25e7 | 1.23e7 | inactive |
| CG13562 | DRSC04200 | 4.10e7 | 4.12e7 | 2.11e7 | 1.85e7 | inactive |
| CG34001 | DRSC09042 | 3.71e7 | 3.34e7 | 2.07e7 | 1.54e7 | inactive |
| OXA1L | DRSC09672 | 5.03e7 | 4.06e7 | 3.37e7 | 1.62e7 | inactive |
| QC | DRSC09736 | 3.82e7 | 2.51e7 | 2.74e7 | 1.16e7 | inactive |
| CG14383 | DRSC14841 | 2.23e7 | 2.90e7 | 1.15e7 | 4.31e7 | inactive |
| px | DRSC04708 | 3.70e7 | – | 2.01e7 | – | inactive |
| px | DRSC23244 | 4.10e7 | 2.98e7 | 2.32e7 | 1.42e7 | inactive |
| CG16890 | DRSC01890 | 3.97e7 | – | 1.78e7 | – | inactive |
| Ada2b | DRSC16531 | 4.48e7 | 3.21e7 | 2.31e7 | 1.71e7 | inactive |
| His2B:CG33870 + His2B:CG33868 + His2B:CG33882 + 21 more | DRSC03757 | 1.64e7 | 2.39e7 | 1.23e7 | 1.50e7 | inactive |
| lig | DRSC07246 | 4.85e7 | 3.07e7 | 2.11e7 | 1.40e7 | inactive |
| lig | DRSC07247 | 3.01e7 | 3.86e7 | 1.52e7 | 1.84e7 | inactive |
| CG14427 | DRSC17921 | 5.12e7 | 4.86e7 | 2.37e7 | 1.94e7 | inactive |
| mEFTu2 | DRSC06163 | 4.37e7 | – | 2.34e7 | – | inactive |
| cd | DRSC16157 | 4.76e7 | 3.66e7 | 2.19e7 | 1.60e7 | inactive |
| puml | DRSC06793 | 2.47e7 | 3.12e7 | 1.19e7 | 1.31e7 | inactive |
| CG43342 | DRSC13561 | 4.53e7 | 3.64e7 | 2.20e7 | 1.73e7 | inactive |
| Ugt35E2 | DRSC16083 | 2.53e7 | 2.24e7 | 1.31e7 | 1.13e7 | inactive |
| CG15283 | DRSC01980 | 5.07e7 | 3.28e7 | 2.28e7 | 1.57e7 | inactive |
